# From US11813239B2, “Compositions and methods for improving cardiac structure and/or function” (Wisconsin Alumni Research Foundation, priority 2020, dated 2023)
# Assays:
# [1] = system: postnatal (P7) mouse heart following myocardial infarction; assay: Echocardiography after myocardial infarction in P7 juvenile mice; details: mean ± SE
# [2] = system: adult mouse heart following myocardial infarction; assay: Echocardiography after adult MI, malonate treatment starting 1-week post-MI; details: adult mice, mean ± SE
Compound,"HR (Heart Rate) ([1]; MI at P7 (n = 8), Atpenin A5 100 μg/kg daily, echo 21 days post-MI (P7D21)) [BPM]","HR (Heart Rate) ([1]; sham at P7 (SH, n = 6), Atpenin A5 100 μg/kg daily, echo at day 21 (P7D21)) [BPM]","HR (Heart Rate) ([1]; MI at P7 (n = 6), dimethyl malonate 100 mg/kg daily for 2 weeks from birth, echo 21 days post-MI (P7D21)) [BPM]","HR (Heart Rate) ([1]; sham at P7 (SH, n = 6), dimethyl malonate 100 mg/kg daily for 2 weeks from birth, echo at day 21 (P7D21)) [BPM]","HR (Heart Rate) ([2]; MI, 2 WPMI, dimethyl malonate 100 mg/kg daily for 4 weeks starting 1 WPMI) [BPM]","HR (Heart Rate) ([2]; MI, 3 WPMI, dimethyl malonate 100 mg/kg daily for 4 weeks starting 1 WPMI) [BPM]","HR (Heart Rate) ([2]; MI, 4 WPMI, dimethyl malonate 100 mg/kg daily for 4 weeks starting 1 WPMI) [BPM]","HR (Heart Rate) ([2]; MI, 6 WPMI, dimethyl malonate 100 mg/kg daily for 4 weeks starting 1 WPMI) [BPM]","HR (Heart Rate) ([2]; malonate group, MI, 1 WPMI (before start of dosing)) [BPM]","HR (Heart Rate) ([2]; malonate group, Pre (before MI and dosing)) [BPM]"
COc1[nH]c(=O)c(C(=O)[C@@H](C)C[C@H](C)[C@@H](Cl)CCl)c(O)c1OC [Atpenin A5],387.000 ± 22.475,426.833 ± 19.170,–,–,–,–,–,–,–,–
"COC(=O)CC(=O)OC [Malonate, dimethyl malonate]",–,–,435.667 ± 24.313,401.000 ± 28.109,540.500 ± 33.895,486.500 ± 19.347,456.833 ± 40.940,465.000 ± 18.925,462.600 ± 26.250,481.167 ± 53.447
